From publication PMC12205802
Results are given in words; binding and its absence hold for the method and conditions named. In cells and extracts the contact can be indirect. Some results given as binding are weak or reduced against the parent protein; the word gives no strength. For part of these data: Where a sequence is shown, tags or fusion partners need not be part of it.

T1: endogenous IRF3 (human (endogenous in HT1080)) (UniProt Q14653)
T1 sequence: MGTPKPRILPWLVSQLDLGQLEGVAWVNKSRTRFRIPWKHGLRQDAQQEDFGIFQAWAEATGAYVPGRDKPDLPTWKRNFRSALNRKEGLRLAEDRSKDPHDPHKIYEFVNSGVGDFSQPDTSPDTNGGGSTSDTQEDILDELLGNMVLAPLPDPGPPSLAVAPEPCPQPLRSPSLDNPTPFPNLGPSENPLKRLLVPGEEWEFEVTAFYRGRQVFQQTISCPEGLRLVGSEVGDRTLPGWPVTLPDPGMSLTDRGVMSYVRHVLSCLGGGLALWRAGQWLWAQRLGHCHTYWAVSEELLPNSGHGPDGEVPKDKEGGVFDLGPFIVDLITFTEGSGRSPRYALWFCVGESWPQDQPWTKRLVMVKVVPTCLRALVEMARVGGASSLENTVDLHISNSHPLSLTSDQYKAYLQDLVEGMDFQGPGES

T2: IRF1-R82A, FLAG-tagged (DNA-binding deficient mutant) (UniProt P10914)
T2 sequence: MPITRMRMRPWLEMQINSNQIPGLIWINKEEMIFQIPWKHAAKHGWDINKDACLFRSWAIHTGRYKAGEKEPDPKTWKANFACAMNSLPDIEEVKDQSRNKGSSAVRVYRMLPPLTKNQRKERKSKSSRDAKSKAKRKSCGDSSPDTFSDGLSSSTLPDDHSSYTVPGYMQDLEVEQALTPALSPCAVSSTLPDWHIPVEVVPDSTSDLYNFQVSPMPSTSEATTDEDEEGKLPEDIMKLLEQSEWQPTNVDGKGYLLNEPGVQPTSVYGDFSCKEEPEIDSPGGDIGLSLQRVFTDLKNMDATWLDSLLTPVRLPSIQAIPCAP

T3: Interferon regulatory factor 1 (IRF1), FLAG-tagged, wild type (UniProt P10914)
T3 sequence: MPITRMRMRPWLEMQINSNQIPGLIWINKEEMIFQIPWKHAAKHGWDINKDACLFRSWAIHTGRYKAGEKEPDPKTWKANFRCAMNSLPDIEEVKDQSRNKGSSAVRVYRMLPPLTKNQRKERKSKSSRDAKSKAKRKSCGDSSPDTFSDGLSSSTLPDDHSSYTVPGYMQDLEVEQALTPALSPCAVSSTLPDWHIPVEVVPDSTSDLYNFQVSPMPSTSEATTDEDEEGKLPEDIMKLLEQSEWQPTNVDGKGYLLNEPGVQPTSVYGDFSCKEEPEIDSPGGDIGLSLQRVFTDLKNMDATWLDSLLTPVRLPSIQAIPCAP


How the values were obtained:
[1] = target: T1, endogenous IRF3 (human (endogenous in HT1080)); assay: co-IP; endogenous proteins; HT1080 cells infected with HSV-1, harvested 8 h post-infection; lysates incubated overnight with rabbit IgG or rabbit anti-IRF3 polyclonal antibody, then Protein A/G agarose, 4 °C, 4 h; immunoblotting
[2] = target: T2, IRF1-R82A, FLAG-tagged (DNA-binding deficient mutant); assay: co-IP; HEK293T cells transfected, collected 24 h post-transfection; NP-40 lysis buffer (150 mM NaCl, 50 mM Tris-HCl pH 7.4, 1% NP-40, 1 mM EDTA); anti-FLAG beads, 4 °C, 4 h; immunoblotting
[3] = target: T3, Interferon regulatory factor 1 (IRF1), FLAG-tagged, wild type; assay: as above

binding [1] | binding [2] | binding [3] | Binder
binds |  |  | endogenous IRF1 (protein, UniProt P10914 1-325) MPITRMRMRPWLEMQINSNQIPGLIWINKEEMIFQIPWKHAAKHGWDINKDACLFRSWAIHTGRYKAGEKEPDPKTWKANFRCAMNSLPDIEEVKDQSRNKGSSAVRVYRMLPPLTKNQRKERKSKSSRDAKSKAKRKSCGDSSPDTFSDGLSSSTLPDDHSSYTVPGYMQDLEVEQALTPALSPCAVSSTLPDWHIPVEVVPDSTSDLYNFQVSPMPSTSEATTDEDEEGKLPEDIMKLLEQSEWQPTNVDGKGYLLNEPGVQPTSVYGDFSCKEEPEIDSPGGDIGLSLQRVFTDLKNMDATWLDSLLTPVRLPSIQAIPCAP
 | binds | binds | IRF3, HA-tagged (protein, UniProt Q14653 1-427) MGTPKPRILPWLVSQLDLGQLEGVAWVNKSRTRFRIPWKHGLRQDAQQEDFGIFQAWAEATGAYVPGRDKPDLPTWKRNFRSALNRKEGLRLAEDRSKDPHDPHKIYEFVNSGVGDFSQPDTSPDTNGGGSTSDTQEDILDELLGNMVLAPLPDPGPPSLAVAPEPCPQPLRSPSLDNPTPFPNLGPSENPLKRLLVPGEEWEFEVTAFYRGRQVFQQTISCPEGLRLVGSEVGDRTLPGWPVTLPDPGMSLTDRGVMSYVRHVLSCLGGGLALWRAGQWLWAQRLGHCHTYWAVSEELLPNSGHGPDGEVPKDKEGGVFDLGPFIVDLITFTEGSGRSPRYALWFCVGESWPQDQPWTKRLVMVKVVPTCLRALVEMARVGGASSLENTVDLHISNSHPLSLTSDQYKAYLQDLVEGMDFQGPGES
